According to publication PMC4331492:
No constants are given. Whether binding was seen depends on the method and setting. Binding seen in cells or lysates may run through a third protein. Some binding calls cover weakened binding; strength is not graded here.

The chains behind the UniProt entries cited, without tags or fusion partners.
UniProt Q99814: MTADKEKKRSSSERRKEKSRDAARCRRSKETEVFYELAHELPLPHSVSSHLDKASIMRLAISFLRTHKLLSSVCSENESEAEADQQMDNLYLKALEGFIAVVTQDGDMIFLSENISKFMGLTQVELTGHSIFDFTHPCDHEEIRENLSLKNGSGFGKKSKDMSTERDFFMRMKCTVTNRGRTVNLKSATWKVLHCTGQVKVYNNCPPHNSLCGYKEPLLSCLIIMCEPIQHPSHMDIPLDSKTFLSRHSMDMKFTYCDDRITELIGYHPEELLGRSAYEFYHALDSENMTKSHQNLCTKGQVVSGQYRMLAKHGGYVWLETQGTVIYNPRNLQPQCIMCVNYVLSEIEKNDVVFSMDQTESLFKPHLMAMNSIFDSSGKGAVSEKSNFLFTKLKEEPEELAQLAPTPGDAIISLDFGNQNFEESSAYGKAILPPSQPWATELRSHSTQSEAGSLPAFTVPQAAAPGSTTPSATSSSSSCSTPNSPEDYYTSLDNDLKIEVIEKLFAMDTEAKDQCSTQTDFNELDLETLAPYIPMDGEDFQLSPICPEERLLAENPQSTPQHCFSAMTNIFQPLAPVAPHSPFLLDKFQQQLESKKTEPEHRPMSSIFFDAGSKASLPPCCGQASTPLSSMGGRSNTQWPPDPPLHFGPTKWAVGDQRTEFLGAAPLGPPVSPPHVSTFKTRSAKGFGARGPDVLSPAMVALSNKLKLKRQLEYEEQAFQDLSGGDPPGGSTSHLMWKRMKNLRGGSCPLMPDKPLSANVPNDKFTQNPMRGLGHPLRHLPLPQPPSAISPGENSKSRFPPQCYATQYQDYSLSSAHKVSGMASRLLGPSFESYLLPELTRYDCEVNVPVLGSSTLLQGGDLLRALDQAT
UniProt Q09472: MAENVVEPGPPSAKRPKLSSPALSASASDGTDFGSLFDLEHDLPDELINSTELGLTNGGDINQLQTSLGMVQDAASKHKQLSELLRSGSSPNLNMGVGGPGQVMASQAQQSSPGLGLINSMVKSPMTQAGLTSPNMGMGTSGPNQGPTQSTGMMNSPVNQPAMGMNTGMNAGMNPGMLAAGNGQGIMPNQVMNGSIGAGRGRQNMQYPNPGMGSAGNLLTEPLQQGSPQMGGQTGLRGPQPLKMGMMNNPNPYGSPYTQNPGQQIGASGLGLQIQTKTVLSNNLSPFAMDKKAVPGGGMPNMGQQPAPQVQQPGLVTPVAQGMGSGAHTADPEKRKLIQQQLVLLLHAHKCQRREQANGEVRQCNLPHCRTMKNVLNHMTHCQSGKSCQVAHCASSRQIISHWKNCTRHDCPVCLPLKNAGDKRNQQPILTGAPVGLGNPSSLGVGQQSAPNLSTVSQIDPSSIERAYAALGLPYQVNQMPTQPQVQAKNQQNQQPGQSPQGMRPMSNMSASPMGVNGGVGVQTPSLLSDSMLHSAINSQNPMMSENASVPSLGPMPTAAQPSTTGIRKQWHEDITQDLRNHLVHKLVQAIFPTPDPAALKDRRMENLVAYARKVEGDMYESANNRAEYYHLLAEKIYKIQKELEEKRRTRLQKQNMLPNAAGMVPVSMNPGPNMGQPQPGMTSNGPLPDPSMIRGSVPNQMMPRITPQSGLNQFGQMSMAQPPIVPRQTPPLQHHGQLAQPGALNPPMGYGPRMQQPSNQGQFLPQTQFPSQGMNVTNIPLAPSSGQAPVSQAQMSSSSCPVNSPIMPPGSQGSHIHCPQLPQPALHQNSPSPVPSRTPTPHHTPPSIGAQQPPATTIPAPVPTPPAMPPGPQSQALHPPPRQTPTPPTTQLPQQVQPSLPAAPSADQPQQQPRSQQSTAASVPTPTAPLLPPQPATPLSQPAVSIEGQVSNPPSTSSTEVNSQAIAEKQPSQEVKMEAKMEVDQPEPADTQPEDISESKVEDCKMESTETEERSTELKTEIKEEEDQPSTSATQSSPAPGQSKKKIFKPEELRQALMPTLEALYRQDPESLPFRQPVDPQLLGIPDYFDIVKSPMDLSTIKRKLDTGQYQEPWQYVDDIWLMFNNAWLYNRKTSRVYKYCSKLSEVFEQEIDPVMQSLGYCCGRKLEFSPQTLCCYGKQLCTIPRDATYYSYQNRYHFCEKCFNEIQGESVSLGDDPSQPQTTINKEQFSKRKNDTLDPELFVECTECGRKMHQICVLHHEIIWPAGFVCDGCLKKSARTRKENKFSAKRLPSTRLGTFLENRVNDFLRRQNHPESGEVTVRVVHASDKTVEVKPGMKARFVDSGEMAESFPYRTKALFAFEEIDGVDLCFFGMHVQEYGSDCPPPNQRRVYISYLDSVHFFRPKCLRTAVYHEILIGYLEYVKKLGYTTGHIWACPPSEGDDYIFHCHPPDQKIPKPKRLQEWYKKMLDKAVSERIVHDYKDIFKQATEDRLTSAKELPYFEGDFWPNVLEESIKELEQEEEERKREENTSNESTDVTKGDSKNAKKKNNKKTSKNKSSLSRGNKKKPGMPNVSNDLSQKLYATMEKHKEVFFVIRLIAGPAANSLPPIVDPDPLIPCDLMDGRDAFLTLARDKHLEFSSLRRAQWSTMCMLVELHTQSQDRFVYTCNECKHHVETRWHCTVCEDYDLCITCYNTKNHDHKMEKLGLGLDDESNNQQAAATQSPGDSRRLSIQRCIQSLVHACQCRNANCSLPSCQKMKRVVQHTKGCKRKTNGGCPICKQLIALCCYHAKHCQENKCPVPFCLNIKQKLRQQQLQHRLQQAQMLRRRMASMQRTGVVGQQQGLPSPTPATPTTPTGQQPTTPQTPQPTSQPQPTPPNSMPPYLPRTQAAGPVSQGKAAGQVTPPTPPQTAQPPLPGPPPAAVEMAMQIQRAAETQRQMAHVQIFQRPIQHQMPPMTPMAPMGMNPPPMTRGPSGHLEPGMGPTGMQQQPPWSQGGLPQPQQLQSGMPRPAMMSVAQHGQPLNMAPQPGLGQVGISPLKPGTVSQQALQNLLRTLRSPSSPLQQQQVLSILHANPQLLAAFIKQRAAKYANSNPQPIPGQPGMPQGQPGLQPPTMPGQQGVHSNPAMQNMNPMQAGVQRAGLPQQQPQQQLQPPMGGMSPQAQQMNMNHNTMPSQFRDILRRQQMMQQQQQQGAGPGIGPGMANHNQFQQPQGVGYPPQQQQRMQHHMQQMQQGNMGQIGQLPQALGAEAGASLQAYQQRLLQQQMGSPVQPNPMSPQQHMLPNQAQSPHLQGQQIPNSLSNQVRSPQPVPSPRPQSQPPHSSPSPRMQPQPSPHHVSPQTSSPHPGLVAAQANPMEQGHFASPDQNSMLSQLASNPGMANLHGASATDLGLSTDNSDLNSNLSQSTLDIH
UniProt Q92793: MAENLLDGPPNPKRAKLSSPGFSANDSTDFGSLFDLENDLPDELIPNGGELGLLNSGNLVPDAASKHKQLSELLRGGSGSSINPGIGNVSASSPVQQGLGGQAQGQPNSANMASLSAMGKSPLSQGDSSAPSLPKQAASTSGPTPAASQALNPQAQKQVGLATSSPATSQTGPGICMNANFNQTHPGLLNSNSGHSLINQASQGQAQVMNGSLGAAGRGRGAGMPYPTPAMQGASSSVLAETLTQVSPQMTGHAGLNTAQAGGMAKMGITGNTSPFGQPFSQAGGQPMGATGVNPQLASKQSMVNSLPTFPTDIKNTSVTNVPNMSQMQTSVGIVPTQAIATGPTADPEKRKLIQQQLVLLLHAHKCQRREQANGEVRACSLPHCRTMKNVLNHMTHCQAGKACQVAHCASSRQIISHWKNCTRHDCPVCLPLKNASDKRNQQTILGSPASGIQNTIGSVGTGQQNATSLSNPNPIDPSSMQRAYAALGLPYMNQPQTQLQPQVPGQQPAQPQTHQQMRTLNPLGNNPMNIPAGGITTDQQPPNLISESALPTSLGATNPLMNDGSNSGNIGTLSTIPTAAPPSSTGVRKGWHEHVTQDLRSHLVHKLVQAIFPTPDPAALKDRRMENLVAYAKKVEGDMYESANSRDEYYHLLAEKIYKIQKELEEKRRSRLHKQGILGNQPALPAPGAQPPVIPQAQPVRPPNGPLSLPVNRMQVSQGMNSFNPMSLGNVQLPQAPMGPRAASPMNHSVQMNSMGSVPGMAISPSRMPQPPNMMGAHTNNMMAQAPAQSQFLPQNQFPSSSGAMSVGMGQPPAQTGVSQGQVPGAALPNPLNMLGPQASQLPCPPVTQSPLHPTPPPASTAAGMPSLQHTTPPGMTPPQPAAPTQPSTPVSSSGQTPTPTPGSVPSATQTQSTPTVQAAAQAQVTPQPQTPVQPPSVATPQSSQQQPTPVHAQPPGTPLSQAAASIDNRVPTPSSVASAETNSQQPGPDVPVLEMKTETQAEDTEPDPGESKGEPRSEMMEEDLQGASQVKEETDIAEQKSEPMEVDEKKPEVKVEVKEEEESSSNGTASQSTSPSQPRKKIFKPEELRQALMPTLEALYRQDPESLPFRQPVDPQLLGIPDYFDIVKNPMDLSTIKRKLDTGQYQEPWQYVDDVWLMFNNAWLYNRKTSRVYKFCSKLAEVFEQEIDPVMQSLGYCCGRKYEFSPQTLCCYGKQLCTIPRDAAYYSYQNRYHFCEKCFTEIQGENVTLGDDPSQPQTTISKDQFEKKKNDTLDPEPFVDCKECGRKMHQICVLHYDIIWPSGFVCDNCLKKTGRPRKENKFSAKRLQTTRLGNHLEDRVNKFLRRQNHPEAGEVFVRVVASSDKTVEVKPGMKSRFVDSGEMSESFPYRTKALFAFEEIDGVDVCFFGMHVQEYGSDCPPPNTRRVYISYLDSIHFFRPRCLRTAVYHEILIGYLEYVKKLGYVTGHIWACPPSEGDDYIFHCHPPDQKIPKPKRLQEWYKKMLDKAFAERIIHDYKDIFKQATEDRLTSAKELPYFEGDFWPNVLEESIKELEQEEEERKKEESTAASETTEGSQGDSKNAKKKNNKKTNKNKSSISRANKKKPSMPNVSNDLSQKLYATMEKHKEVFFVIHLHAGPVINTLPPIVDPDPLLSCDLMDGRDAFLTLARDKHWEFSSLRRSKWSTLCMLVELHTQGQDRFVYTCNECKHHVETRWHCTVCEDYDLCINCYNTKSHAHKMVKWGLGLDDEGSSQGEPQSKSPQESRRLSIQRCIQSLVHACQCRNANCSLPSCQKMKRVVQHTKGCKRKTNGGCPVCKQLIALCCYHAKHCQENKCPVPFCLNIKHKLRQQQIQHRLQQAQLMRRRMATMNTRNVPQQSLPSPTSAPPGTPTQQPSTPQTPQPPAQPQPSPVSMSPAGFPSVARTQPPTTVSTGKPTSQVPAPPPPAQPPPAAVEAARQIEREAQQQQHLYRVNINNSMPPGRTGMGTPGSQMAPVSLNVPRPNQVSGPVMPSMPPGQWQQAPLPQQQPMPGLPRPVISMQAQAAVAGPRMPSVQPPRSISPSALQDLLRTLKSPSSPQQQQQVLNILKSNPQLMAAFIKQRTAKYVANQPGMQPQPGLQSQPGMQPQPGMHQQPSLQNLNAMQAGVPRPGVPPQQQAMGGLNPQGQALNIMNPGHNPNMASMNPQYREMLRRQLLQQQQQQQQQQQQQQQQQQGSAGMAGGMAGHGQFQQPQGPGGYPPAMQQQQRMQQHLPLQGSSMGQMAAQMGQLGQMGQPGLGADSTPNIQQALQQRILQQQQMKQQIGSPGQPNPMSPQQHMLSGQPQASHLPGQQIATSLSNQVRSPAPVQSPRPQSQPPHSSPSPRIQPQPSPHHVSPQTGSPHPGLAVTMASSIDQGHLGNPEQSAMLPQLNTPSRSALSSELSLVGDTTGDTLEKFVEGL

Assays:
[1] = target: Hypoxia Inducible Factor 2 alpha (HIF-2α) (human (endogenous in HT1080)) (UniProt Q99814); assay: co-IP; as a1; cells after ACSS2 siRNA knock-down (with or without FIH1 knock-down), early (4 hr) hypoxia
[2] = target: Hypoxia Inducible Factor 2 alpha (HIF-2α) (human (endogenous in HT1080)) (UniProt Q99814); assay: condition: only cells after acetate addition without FIH1 knock-down; co-IP; as a1; cells treated with acetate (4 hr), FIH1 not knocked down (also after ACSS2 knock-down)
[3] = target: Hypoxia Inducible Factor 2 alpha (HIF-2α) (human (endogenous in HT1080)) (UniProt Q99814); assay: condition: only cells under glucose deprivation (early 2 hr or late 24 hr); co-IP; as a1; cells under low glucose (1 mM), early (2 hr) or late (24 hr), FIH1 not knocked down (also after ACSS2 knock-down)
[4] = target: Hypoxia Inducible Factor 2 alpha (HIF-2α) (human (endogenous in HT1080)) (UniProt Q99814); assay: co-IP; endogenous HIF-2α immunoprecipitated from HT1080 extracts (Universal Co-IP kit, protein A agarose), immunoblot for CBP or p300; cells exposed to hypoxia (4 or 16 hr), low glucose (2 or 24 hr) or 0.5 mM acetate (4 hr); control or FIH1 siRNA
[5] = target: Hypoxia Inducible Factor 2 alpha (HIF-2α) (human (endogenous in HT1080)) (UniProt Q99814); assay: co-IP; as a1; cells after SIRT1 siRNA knock-down, then hypoxia, low glucose or acetate exposure
[6] = target: Hypoxia Inducible Factor 2 alpha (HIF-2α) (human (endogenous in HT1080)) (UniProt Q99814); assay: condition: only after ACSS2 knock-down, early (4 hr) hypoxia; co-IP; as a1; cells after ACSS2 siRNA knock-down (with or without FIH1 knock-down), early (4 hr) hypoxia
[7] = target: Hypoxia Inducible Factor 2 alpha (HIF-2α) (human (endogenous in HT1080)) (UniProt Q99814); assay: co-IP; in vitro: acetyl CoA (50 μM), ATP (100 μM) or acetate (50 μM) added to 50 μl HT1080 extract (ACSS2-depleted or ACSS2-replete, from hypoxia or low glucose cells), 30°C for 30 min, then endogenous HIF-2α immunoprecipitated and immunoblot for CBP or p300

binding [1] | binding [2] | binding [3] | binding [4] | binding [6] | binding [7] | Substance | binding [5]
binds | no binding | no binding | binds | – | – | p300 (from UniProt Q09472 1-2414) | –
– | – | – | binds | no binding | binds | Creb binding protein (CBP) (from UniProt Q92793 1-2442) | no binding (condition: after SIRT1 knock-down)
